Reference: the supplement of paper PMC10849652
The list shows a part of the results.

Sequences of proteins named here, by UniProt entry; tags and fusion partners are left off. A change or cut given only in a name is not applied to a line headed by its entry.
UniProt Q96BH1: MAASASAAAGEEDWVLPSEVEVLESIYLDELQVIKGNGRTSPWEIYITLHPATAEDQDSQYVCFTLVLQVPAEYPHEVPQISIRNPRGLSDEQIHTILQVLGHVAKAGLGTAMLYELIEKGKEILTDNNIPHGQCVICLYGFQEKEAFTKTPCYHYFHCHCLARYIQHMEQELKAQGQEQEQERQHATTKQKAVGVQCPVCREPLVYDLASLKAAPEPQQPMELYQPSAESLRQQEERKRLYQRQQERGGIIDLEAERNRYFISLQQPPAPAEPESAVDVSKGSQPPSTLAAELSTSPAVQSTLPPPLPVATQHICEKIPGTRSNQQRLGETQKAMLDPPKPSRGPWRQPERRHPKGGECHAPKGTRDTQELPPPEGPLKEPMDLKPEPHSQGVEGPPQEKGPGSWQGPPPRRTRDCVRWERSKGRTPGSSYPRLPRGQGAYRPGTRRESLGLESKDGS
UniProt Q8TDP1: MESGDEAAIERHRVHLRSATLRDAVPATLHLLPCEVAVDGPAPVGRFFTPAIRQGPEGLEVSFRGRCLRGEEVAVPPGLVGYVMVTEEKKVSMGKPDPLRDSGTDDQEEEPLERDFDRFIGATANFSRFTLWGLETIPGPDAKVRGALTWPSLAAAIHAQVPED
UniProt P15927: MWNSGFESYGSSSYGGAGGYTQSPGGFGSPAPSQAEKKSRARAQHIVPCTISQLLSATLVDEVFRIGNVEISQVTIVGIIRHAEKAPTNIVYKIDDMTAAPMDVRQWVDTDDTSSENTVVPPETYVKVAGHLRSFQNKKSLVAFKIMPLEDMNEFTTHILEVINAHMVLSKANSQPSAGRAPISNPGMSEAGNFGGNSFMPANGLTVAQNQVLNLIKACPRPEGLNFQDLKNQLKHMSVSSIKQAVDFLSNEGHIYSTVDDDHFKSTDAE
UniProt Q9H920: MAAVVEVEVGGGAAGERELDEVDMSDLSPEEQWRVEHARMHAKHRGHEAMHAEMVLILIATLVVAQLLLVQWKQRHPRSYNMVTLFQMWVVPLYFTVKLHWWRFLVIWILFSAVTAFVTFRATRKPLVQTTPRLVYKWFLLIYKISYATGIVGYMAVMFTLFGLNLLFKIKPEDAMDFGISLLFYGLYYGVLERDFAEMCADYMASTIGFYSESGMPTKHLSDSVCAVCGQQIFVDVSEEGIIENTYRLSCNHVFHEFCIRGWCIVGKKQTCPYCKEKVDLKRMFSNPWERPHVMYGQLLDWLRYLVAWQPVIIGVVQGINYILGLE
UniProt Q9NPQ8: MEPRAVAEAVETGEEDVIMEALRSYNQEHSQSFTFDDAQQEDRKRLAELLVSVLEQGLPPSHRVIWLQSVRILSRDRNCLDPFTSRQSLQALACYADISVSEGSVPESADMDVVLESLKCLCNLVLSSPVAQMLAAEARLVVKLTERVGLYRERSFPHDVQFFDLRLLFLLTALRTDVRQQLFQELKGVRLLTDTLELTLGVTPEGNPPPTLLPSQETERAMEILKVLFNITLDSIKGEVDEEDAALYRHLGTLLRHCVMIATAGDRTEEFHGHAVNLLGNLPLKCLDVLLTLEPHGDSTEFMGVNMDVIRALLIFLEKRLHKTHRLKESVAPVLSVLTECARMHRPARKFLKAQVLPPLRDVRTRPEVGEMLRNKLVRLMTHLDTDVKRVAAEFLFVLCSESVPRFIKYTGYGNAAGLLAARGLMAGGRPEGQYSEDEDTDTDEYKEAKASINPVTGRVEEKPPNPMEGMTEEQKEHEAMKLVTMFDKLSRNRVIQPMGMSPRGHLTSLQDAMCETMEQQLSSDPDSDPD
UniProt Q9H871: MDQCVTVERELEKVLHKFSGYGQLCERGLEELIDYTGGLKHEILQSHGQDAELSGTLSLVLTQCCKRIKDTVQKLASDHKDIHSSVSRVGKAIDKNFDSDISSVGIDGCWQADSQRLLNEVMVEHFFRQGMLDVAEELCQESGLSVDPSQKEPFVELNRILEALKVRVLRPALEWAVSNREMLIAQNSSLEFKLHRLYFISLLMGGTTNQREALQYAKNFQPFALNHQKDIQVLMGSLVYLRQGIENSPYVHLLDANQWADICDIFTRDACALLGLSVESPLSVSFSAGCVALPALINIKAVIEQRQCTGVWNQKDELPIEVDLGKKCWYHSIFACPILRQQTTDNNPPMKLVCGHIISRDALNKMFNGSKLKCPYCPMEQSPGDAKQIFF
UniProt P60602: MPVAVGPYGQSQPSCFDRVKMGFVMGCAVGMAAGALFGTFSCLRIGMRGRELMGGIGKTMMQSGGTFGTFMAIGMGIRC
UniProt Q8IXI2: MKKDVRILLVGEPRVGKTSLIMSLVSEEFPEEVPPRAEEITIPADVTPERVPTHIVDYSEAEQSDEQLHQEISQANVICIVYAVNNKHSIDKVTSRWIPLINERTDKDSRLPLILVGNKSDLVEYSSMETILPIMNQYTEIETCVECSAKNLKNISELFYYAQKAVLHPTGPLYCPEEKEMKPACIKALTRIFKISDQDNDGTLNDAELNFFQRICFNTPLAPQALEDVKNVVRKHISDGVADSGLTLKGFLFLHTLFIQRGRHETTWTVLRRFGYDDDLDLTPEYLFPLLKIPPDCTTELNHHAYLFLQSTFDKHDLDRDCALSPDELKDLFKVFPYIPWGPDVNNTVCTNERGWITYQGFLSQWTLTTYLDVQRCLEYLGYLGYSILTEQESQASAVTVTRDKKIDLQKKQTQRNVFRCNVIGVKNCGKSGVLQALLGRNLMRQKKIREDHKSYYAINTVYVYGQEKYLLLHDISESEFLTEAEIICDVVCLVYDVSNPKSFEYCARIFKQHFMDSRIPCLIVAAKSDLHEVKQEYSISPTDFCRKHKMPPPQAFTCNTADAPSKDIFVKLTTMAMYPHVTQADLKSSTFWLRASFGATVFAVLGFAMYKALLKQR
UniProt Q8IUF8: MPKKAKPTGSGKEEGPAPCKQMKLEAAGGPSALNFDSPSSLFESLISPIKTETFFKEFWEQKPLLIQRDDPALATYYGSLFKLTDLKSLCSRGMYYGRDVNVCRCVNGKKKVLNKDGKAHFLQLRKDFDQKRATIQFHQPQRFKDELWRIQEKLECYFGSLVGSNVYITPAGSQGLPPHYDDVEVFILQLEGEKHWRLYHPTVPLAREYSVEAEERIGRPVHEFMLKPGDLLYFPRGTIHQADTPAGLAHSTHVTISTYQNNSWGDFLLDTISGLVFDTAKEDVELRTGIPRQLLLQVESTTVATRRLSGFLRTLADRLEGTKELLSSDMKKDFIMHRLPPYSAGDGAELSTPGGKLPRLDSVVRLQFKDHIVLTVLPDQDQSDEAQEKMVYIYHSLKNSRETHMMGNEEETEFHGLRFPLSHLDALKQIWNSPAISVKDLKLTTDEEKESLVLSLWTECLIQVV
UniProt P62745, whole entry, looked up: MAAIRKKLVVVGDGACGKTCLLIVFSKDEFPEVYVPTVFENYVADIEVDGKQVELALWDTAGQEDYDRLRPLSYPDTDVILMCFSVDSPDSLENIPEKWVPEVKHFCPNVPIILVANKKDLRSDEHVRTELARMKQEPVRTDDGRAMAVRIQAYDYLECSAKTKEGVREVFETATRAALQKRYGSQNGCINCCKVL
UniProt Q9UBF6, whole entry, looked up: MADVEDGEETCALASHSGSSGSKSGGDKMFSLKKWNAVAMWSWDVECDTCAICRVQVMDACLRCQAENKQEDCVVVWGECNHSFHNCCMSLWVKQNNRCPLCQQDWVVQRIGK
UniProt P49247: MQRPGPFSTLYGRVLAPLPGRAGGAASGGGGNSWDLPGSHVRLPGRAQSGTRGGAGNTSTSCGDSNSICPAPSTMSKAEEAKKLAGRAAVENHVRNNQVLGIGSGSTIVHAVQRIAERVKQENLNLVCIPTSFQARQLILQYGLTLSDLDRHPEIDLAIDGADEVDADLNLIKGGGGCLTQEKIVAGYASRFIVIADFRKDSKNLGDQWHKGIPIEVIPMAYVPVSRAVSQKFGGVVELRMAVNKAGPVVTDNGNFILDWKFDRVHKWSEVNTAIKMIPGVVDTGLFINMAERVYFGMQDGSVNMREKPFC
UniProt Q9BVS4: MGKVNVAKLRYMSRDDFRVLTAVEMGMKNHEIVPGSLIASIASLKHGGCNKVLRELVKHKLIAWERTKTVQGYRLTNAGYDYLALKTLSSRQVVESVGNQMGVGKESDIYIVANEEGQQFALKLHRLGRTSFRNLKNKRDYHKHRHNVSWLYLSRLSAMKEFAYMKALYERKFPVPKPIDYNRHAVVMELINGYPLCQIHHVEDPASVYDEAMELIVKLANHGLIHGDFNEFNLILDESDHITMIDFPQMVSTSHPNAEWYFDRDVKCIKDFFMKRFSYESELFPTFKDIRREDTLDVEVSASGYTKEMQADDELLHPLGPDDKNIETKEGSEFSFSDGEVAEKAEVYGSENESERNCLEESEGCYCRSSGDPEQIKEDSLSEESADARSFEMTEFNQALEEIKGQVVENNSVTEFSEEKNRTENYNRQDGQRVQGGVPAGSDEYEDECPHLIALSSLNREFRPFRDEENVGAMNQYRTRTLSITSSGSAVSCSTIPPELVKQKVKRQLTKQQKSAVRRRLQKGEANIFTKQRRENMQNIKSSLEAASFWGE
UniProt Q6ZS11: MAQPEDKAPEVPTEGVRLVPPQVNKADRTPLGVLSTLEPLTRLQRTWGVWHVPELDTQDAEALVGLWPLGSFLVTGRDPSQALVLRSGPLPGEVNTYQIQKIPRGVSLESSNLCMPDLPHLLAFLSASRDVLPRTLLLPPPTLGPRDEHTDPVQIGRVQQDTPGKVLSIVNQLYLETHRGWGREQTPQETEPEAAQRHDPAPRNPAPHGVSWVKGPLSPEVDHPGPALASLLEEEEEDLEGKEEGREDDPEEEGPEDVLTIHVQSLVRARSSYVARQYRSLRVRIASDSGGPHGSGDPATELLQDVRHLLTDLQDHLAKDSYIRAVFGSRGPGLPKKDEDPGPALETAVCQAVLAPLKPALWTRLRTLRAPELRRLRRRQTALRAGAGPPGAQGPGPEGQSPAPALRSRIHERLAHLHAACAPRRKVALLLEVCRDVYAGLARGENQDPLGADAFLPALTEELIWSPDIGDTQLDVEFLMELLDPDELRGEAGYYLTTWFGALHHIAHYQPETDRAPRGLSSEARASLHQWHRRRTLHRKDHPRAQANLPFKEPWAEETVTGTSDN
UniProt Q5TA31: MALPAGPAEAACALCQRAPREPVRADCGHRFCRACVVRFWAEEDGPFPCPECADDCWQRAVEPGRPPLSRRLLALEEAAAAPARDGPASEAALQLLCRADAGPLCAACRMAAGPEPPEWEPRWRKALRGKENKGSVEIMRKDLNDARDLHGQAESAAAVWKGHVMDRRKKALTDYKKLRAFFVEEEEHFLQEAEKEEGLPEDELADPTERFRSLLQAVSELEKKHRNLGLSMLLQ
UniProt Q8IUC4: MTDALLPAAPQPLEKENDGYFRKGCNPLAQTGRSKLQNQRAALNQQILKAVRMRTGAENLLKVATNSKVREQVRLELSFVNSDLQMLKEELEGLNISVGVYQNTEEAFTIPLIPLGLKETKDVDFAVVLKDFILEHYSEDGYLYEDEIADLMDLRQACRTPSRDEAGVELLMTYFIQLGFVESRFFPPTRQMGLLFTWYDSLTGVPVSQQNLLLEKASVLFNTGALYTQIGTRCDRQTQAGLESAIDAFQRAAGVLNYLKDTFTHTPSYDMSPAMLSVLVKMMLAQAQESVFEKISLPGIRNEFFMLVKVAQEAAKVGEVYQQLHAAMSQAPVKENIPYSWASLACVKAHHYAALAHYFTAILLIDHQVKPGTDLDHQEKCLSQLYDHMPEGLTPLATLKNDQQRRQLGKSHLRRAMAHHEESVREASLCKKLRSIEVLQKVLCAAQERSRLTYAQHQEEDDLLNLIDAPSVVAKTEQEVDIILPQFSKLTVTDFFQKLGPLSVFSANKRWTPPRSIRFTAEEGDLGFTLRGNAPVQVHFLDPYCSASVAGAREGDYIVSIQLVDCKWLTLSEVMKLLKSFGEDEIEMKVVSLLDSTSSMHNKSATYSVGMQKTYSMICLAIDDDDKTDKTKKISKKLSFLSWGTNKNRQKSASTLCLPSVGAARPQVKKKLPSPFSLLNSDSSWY

Experiments:
Assay in all cases: log2 fold change, soluble protein after heating vs DMSO (PISA); higher = thermal stabilisation; K562 lysate, 10 uM; active = over 0.2 and 3.5 SD of the protein, either way, in both replicates (recomputed)
[1] = compound: Cc1cn(-c2cc(NC(=O)c3ccc(C)c(Nc4nccc(-c5cccnc5)n4)c3)cc(C(F)(F)F)c2)cn1 [nilotinib]
Summary of the method: (§1)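 Dounce homogenisation of K562 pellets in PBS pH 7.4 with 1 mM MgCl2 produced a crude extract, used at 1 mg/mL protein. Exposure to 10 μM compound lasted 30 min, and aliquots were then heated for 3 min across 48°C-58°C, pooled and brought to 0.5% NP-40 at 4°C. The supernatant after 21,000xg for 90 min was quantified by TMTpro 16plex LC-MS/MS with channel sums equalised. Duplicate values are given as log-two fold change in thermal stability relative to solvent controls.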

[2] = compound: Cc1nc(Nc2n[nH]c3c2CN(C(=O)N[C@H](CN(C)C)c2ccccc2)C3(C)C)c2sccc2n1
Summary of the method: as §1

[3] = compound: Cc1nc(Nc2ncc(C(=O)Nc3c(C)cccc3Cl)s2)cc(N2CCN(CCO)CC2)n1 [dasatinib]
Summary of the method: as §1

[4] = compound: Cc1ncc(-c2ccnc(Nc3ccc(S(C)(=O)=O)cc3)n2)n1C(C)C
Summary of the method: as §1

[5] = compound: Cn1cc(-c2ccc3c(c2)CCN3C(=O)Cc2cccc(C(F)(F)F)c2)c2c(N)ncnc21
Summary of the method: as §1

[6] = compound: Cn1cc(CNCC2CCN(c3ncc(C(=O)NO)cn3)CC2)c2ccccc21 [quisinostat]
Summary of the method: as §1

[7] = compound: Cn1cncc1[C@@](N)(c1ccc(Cl)cc1)c1ccc2c(c1)c(-c1cccc(Cl)c1)cc(=O)n2C [tipifarnib]
Summary of the method: as §1

[8] = compound: NC(=O)Nc1cc(-c2cccc(F)c2)sc1C(=O)N[C@H]1CCCNC1
Summary of the method: as §1

[9] = compound: NC(=O)c1cnc(N[C@@H]2CCCC[C@@H]2N)nc1Nc1cccc(-n2nccn2)c1
Summary of the method: as §1

[10] = compound: NC1(c2ccc(-c3nc4ccn5c(=O)[nH]nc5c4cc3-c3ccccc3)cc2)CCC1
Summary of the method: as §1

[11] = compound: NCC(=O)Nc1ccc(-n2nc(C(F)(F)F)cc2-c2ccc3c(ccc4ccccc43)c2)cc1
Summary of the method: as §1

[12] = compound: O=C(CCCCCCC(=O)Nc1ccccc1)NO [vorinostat]
Summary of the method: as §1

[13] = compound: O=C(O)c1ccc2c(c1)nc(Nc1cccc(Cl)c1)c1ccncc12 [silmitasertib]
Summary of the method: as §1

[14] = compound: O=C1NC(=O)C(c2cnc3ccccn23)=C1c1cn2c3c(cc(F)cc13)CN(C(=O)N1CCCCC1)CC2
Summary of the method: as §1

[15] = compound: c1cn2cc(-c3ccc4cn[nH]c4c3)nc(Nc3ccc(N4CCOCC4)cc3)c2n1 [entospletinib]
Summary of the method: as §1

Target | log2 fold change [1] | log2 fold change [2] | log2 fold change [3] | log2 fold change [4] | log2 fold change [5] | log2 fold change [6] | log2 fold change [7] | log2 fold change [8] | log2 fold change [9] | log2 fold change [10] | log2 fold change [11] | log2 fold change [12] | log2 fold change [13] | log2 fold change [14] | log2 fold change [15]
RNF25 (UniProt Q96BH1) | inactive: 0.036 | inactive: -0.029 | inactive: -0.017 | inactive: 0.004 | inactive: -0.006 | inactive: 0.005 | inactive: 0.012 | inactive: -0.014 | inactive: 0.014 | inactive: -0.063 | inactive: 0.025 | inactive: 0.097 | inactive: -0.034 | inactive: -0.02 | inactive: -0.004
RNASEH2C (UniProt Q8TDP1) | inactive: 0.006 | inactive: -0.045 | inactive: -0.034 | inactive: -0.03 | inactive: 0 | inactive: -0.036 | inactive: -0.002 | inactive: 0.005 | inactive: 0.025 | inactive: 0.027 | inactive: 0.019 | inactive: -0.066 | inactive: 0.004 | inactive: -0.075 | inactive: -0.015
RPA2 isoform 3 (UniProt P15927) | inactive: 0.001 | inactive: -0.008 | inactive: 0.013 | inactive: -0.008 | inactive: -0.032 | inactive: -0.013 | inactive: 0.034 | inactive: -0.017 | inactive: -0.007 | inactive: -0.021 | inactive: 0.006 | inactive: 0.12 | inactive: -0.012 | inactive: -0.015 | inactive: 0.041
RNF121 (UniProt Q9H920) | inactive: -0.009 | inactive: -0.055 | inactive: 0 | inactive: -0.078 | inactive: -0.086 | inactive: -0.049 | inactive: 0.13 | inactive: 0.016 | inactive: 0.12 | inactive: 0.028 |  | inactive: 0.081 | inactive: -0.065 | inactive: 0.01 | 
RIC8A (UniProt Q9NPQ8) | inactive: 0.001 | inactive: 0.003 | inactive: -0.021 | inactive: -0.012 | inactive: 0.013 | inactive: -0.012 | inactive: -0.023 | inactive: 0.088 | inactive: 0.02 | inactive: -0.003 | inactive: -0.002 | inactive: -0.103 | inactive: 0.035 | inactive: 0.026 | inactive: -0.007
RMND5A (UniProt Q9H871) | inactive: -0.017 | inactive: 0.015 | inactive: 0.007 | inactive: 0.002 | inactive: -0.01 | inactive: -0.095 | inactive: -0.01 | inactive: 0 | inactive: 0.006 | inactive: 0.002 | inactive: -0.016 | inactive: -0.112 | inactive: 0.008 | inactive: -0.045 | inactive: -0.04
ROMO1 (UniProt P60602) | inactive: -0.083 | inactive: -0.021 | inactive: -0.013 | inactive: 0.11 | inactive: -0.037 | inactive: -0.223 | inactive: 0.098 | inactive: 0.003 | inactive: 0.01 | inactive: 0.046 | inactive: -0.049 | inactive: 0.063 | inactive: -0.012 | inactive: -0.067 | inactive: -0.06
RHOT1 isoform 3 (UniProt Q8IXI2) | inactive: 0.01 | inactive: -0.034 | inactive: -0.049 | inactive: -0.015 | inactive: 0.07 | inactive: -0.018 | inactive: -0.002 | inactive: 0.058 | inactive: -0.022 | inactive: 0.046 | inactive: 0.024 | inactive: -0.057 | inactive: -0.004 | inactive: -0.009 | inactive: -0.029
RIOX2 (UniProt Q8IUF8) | inactive: 0.015 | inactive: 0.004 | inactive: 0.003 | inactive: 0.095 | inactive: -0.017 | inactive: -0.065 | inactive: -0.024 | inactive: 0.035 | inactive: -0.039 | inactive: -0.067 | inactive: 0.07 | inactive: -0.053 | inactive: 0.013 | inactive: -0.052 | inactive: -0.009
RPL35A (UniProt P18077) | inactive: -0.01 | inactive: 0.003 | inactive: 0.045 | inactive: -0.05 | inactive: 0.041 | inactive: 0.062 | inactive: -0.005 | inactive: -0.026 | inactive: -0.02 | inactive: -0.02 | inactive: 0.039 | inactive: 0.062 | inactive: -0.022 | inactive: 0.008 | inactive: -0.032
RHOB (UniProt P62745) | inactive: 0.076 | inactive: -0.248 | inactive: -0.03 | inactive: -0.167 | inactive: 0.09 | inactive: 0.02 | inactive: -0.047 | inactive: -0.027 | inactive: 0.049 | inactive: 0.036 | inactive: 0.041 | inactive: 0.056 | inactive: 0.038 | inactive: 0.082 | inactive: -0.048
RNF7 (UniProt Q9UBF6) | inactive: 0.125 | inactive: 0.014 | inactive: -0.088 | inactive: 0.074 | inactive: 0.052 | inactive: 0.009 | inactive: 0.021 | inactive: -0.025 | inactive: -0.006 | inactive: -0.001 | inactive: -0.051 | inactive: 0.047 | inactive: 0.04 | inactive: 0.082 | inactive: -0.16
RPIA (UniProt P49247) | inactive: 0.03 | inactive: -0.024 | inactive: -0.007 | inactive: -0.008 | inactive: -0.037 | inactive: -0.024 | inactive: 0.047 | inactive: 0.014 | inactive: -0.012 | inactive: 0.03 | inactive: 0.045 | inactive: 0.121 | inactive: -0.017 | inactive: 0.007 | inactive: -0.012
RIOK2 (UniProt Q9BVS4) | inactive: 0.002 | inactive: 0.034 | inactive: 0.01 | active: 0.537 | inactive: -0.023 | inactive: -0.054 | inactive: -0.013 | inactive: 0.05 | inactive: 0.198 | inactive: -0.03 | inactive: -0.022 | inactive: -0.098 | inactive: 0.096 | inactive: 0.008 | inactive: 0.315
RICTOR isoform 3 (UniProt Q6R327) | inactive: 0.04 | inactive: 0.038 | inactive: -0.048 | inactive: -0.057 | inactive: 0.034 | inactive: -0.055 | inactive: -0.01 | inactive: 0.027 | inactive: 0.067 | inactive: 0.148 | inactive: 0.044 | inactive: -0.277 | inactive: 0.167 | inactive: -0.031 | inactive: -0.046
RINL (UniProt Q6ZS11) | inactive: 0.049 | inactive: -0.271 | inactive: -0.008 | inactive: -0.02 | inactive: 0.012 |  | inactive: -0.209 |  | inactive: -0.047 | inactive: 0.021 |  | inactive: -0.236 | inactive: 0.031 |  | inactive: -0.372
RNF187 (UniProt Q5TA31) | inactive: 0.04 | inactive: 0.1 | inactive: -0.013 | inactive: -0.038 | inactive: -0.001 | inactive: -0.013 | inactive: -0.06 | inactive: 0.01 |  | inactive: 0.014 | inactive: 0.071 | inactive: -0.002 | inactive: 0.02 | inactive: 0.009 | inactive: -0.12
RHPN2 (UniProt Q8IUC4) | inactive: -0.154 | inactive: 0.057 |  | inactive: -0.221 |  | inactive: -0.172 | inactive: 0.159 | inactive: -0.045 | inactive: -0.082 | inactive: -0.152 |  | inactive: 0.09 | inactive: -0.077 | inactive: 0.003 | inactive: 0.184

Retrieved one by one from the entries so far:
Target | log2 fold change [1] | log2 fold change [2] | log2 fold change [3] | log2 fold change [4] | log2 fold change [5] | log2 fold change [6] | log2 fold change [7] | log2 fold change [8] | log2 fold change [9] | log2 fold change [10] | log2 fold change [11] | log2 fold change [12] | log2 fold change [13] | log2 fold change [14] | log2 fold change [15]
RNF7 (UniProt Q9UBF6) | inactive: 0.125 | inactive: 0.014 | inactive: -0.088 | inactive: 0.074 | inactive: 0.052 | inactive: 0.009 | inactive: 0.021 | inactive: -0.025 | inactive: -0.006 | inactive: -0.001 | inactive: -0.051 | inactive: 0.047 | inactive: 0.04 | inactive: 0.082 | inactive: -0.16
RNASEH2C (UniProt Q8TDP1) | inactive: 0.006 | inactive: -0.045 | inactive: -0.034 | inactive: -0.03 | inactive: 0 | inactive: -0.036 | inactive: -0.002 | inactive: 0.005 | inactive: 0.025 | inactive: 0.027 | inactive: 0.019 | inactive: -0.066 | inactive: 0.004 | inactive: -0.075 | inactive: -0.015
